Reference: article PMC7556753, “A double role of the Gal80 N terminus in activation of transcription by Gal4p” (Life Science Alliance, 2020)
Results are given in words; binding and its absence hold for the method and conditions named. Binding seen in cells or lysates may run through a third protein. Some binding calls cover weakened binding; strength is not graded here. Sequences can lack the tags named with a protein. Blank lines part the entries; values can stand above or below the binder they belong to.

How the values were obtained:
[1] = molecular target: T1, glutathione S-transferase-KlGal1 fusion protein Gst-KlGal1p (Kluyveromyces lactis) (UniProt P09608); assay: pull-down; Fig 6C: 1,500 μg raw extract containing GST-Gal1p immobilized on a GST-column for 1 h 30 min, 20 μg of purified Gal80p added for 1 h 30 min, four washes, elution with 40 mM GSH, Coomassie-stained SDS gel; only the binder purified
T1 sequence: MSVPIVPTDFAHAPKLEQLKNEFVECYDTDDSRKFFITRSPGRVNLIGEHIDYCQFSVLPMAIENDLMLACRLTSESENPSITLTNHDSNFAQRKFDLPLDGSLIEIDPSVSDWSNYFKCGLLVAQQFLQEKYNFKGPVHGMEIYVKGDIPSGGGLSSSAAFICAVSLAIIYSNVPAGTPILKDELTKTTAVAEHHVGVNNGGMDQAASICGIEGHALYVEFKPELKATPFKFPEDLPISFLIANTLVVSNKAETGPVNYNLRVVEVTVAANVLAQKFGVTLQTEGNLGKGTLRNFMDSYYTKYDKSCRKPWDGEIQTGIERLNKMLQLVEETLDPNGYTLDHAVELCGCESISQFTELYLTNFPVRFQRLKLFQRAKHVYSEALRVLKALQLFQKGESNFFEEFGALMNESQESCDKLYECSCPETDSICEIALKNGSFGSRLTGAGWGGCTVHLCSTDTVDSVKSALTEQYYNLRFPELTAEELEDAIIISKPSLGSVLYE

[2] = molecular target: T1, glutathione S-transferase-KlGal1 fusion protein Gst-KlGal1p (Kluyveromyces lactis); assay: pull-down; data not shown: GST pull-down with Gst-KlGal1p as bait, repeated with the other tag form of KlGal80p (untagged or His6-tagged)

binding [1]: binds
B1: KlGal80p with internal His6-tag (IHKlGal80p) (protein, UniProt Q06433 1-457)
chain: MNNNKRSKLSTVPSSRPIRVGFVGLTSGKSWVAKTHFLAIQQLSSQFQIVALYNPTLKSSLQTIEQLQLKHATGFDSLESFAQYKDIDMIVVSVKVPEHYEVVKNILEHSSQNLNLRYLYVEWALAASVQQAEELYSISQQRANLQTIICLQGRKSPYIVRAKELISEGCIGDINSIEISGNGGWYGYERPMRSPEYLYDIESGVNLISNSFGHTIDVLQYITGSYFQKINAMISNNIPTQFLLDENGKRTKETISKTCPDHLLFQGILENGKVPVSCSFKGGTPVKKLTKNLVIDIHGTKGDLKIEGDAGFVEISNLVLYFYGIKNGNGSSNGTDNNGAAAIKDKEKVTKSPSPSTGTSEEEQTMEVFHLRNYNSVVGNILRIYESIADYHFLGKPESKSSRGPDDLFASTKFDKQGFRFEGFPTFKDAIILHRLIDAVFRSDKEEKTLDVSKIMI

binding [2]: binds
B2: untagged wild-type KlGal80p (protein, UniProt Q06433 1-457)
chain: B1 chain
